The values that follow come from patent US5780588A (priority 1993, dated 1998).

The nature of this data set: solution-phase peptide synthesis. The following applies: coupling step.

Take Dov-Val-Dil-Dap-Pro-OCH3: the step yield was 69%.
